The target of test [1] is Actin-Related Protein-Testis1 (ARP-T1), wild type, tagged with DDK (human) (UniProt Q8TDG2). Briefly: affinity purification with mass spectrometry; ARP-T1-DDK from transduced serum-starved (differentiated) hTERT-RPE1 cells held on anti-FLAG M2 affinity gel; FLAG lysis buffer; precipitate separated on a gel, digested with trypsin, Orbitrap mass spectrometry; empty vector as control.

Sequences of proteins named here, by UniProt entry; tags and fusion partners are left off.
UniProt Q8TDG2: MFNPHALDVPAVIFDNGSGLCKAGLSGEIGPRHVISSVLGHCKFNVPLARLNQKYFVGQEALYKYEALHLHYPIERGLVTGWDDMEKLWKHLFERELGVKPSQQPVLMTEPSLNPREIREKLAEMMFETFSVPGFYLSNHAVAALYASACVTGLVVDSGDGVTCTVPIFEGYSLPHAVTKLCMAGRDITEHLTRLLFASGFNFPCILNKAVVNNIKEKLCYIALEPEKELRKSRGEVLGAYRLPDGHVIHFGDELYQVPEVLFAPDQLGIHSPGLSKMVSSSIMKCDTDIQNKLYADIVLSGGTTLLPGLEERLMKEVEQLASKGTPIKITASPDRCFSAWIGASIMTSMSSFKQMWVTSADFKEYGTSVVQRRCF
UniProt P20340: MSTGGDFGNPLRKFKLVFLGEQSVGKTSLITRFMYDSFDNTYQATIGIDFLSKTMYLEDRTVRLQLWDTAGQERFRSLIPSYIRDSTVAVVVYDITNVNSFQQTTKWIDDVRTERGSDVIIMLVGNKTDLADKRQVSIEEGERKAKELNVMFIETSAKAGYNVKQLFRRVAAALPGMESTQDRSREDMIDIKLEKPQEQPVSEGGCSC
UniProt P11142: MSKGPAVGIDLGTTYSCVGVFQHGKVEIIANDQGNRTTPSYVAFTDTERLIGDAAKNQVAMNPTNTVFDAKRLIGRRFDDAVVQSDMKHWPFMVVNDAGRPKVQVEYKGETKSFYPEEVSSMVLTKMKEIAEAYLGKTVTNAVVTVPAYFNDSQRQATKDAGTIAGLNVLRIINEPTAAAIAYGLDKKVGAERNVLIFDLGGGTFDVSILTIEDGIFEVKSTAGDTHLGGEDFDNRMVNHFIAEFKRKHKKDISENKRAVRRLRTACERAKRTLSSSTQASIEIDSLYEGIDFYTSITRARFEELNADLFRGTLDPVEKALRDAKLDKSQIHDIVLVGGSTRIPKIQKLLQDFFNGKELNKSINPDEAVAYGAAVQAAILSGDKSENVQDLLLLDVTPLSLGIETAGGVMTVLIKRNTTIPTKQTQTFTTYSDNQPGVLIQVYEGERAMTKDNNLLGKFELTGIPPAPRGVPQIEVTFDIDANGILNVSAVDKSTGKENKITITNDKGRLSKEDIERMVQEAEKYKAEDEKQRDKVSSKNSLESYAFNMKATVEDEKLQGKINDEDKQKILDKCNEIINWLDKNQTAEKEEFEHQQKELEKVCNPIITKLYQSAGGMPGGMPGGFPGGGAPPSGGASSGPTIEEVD
UniProt Q9Y265: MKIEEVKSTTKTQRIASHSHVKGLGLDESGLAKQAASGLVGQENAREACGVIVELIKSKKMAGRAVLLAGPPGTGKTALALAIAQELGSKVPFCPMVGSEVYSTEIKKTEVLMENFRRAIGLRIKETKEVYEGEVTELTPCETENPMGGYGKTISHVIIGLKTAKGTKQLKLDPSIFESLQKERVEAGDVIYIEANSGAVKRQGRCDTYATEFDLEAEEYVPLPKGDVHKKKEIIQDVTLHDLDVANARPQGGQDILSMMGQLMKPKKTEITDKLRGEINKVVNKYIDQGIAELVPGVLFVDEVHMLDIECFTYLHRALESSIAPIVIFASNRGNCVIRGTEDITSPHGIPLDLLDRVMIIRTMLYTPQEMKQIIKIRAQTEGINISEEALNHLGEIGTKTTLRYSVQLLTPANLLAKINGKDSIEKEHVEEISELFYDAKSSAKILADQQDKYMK
UniProt Q9NP72: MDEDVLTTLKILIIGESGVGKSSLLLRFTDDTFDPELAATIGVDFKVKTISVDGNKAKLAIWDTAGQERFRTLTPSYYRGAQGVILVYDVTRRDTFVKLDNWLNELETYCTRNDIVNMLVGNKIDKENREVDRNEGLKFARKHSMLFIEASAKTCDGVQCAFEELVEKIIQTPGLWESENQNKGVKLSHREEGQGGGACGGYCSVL
UniProt O95816: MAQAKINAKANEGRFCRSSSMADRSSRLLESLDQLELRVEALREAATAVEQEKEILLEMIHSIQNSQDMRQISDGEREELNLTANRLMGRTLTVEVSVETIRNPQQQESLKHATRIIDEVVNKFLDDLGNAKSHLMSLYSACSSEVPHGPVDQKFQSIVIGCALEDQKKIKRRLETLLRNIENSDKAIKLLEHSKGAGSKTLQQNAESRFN
UniProt O14980: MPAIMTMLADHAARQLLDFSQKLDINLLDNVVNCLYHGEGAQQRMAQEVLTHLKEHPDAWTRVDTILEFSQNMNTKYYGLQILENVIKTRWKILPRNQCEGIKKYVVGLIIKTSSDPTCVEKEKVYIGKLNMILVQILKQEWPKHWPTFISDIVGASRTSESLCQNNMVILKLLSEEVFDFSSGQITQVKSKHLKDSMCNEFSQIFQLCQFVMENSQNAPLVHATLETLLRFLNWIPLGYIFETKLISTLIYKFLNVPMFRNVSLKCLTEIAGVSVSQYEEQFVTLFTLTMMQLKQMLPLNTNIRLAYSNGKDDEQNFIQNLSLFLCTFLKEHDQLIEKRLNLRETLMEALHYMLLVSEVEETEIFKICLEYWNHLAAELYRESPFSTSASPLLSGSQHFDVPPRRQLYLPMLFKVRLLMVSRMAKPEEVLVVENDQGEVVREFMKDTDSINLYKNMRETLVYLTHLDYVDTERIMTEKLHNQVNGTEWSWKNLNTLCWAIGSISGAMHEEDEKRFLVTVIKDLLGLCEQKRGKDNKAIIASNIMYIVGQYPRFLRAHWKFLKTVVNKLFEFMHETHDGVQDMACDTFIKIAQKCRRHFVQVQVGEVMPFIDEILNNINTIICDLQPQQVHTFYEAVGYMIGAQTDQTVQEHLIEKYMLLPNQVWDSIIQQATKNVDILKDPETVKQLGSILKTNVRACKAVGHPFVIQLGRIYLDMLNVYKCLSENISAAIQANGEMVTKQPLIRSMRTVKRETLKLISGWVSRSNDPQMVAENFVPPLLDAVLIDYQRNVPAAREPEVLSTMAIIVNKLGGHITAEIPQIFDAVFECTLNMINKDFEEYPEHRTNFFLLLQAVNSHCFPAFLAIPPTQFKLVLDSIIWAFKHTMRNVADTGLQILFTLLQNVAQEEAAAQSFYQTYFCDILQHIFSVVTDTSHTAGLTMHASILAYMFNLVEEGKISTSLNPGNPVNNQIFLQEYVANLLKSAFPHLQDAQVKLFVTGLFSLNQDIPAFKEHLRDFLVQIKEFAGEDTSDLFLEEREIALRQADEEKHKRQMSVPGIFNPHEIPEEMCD
UniProt P50990: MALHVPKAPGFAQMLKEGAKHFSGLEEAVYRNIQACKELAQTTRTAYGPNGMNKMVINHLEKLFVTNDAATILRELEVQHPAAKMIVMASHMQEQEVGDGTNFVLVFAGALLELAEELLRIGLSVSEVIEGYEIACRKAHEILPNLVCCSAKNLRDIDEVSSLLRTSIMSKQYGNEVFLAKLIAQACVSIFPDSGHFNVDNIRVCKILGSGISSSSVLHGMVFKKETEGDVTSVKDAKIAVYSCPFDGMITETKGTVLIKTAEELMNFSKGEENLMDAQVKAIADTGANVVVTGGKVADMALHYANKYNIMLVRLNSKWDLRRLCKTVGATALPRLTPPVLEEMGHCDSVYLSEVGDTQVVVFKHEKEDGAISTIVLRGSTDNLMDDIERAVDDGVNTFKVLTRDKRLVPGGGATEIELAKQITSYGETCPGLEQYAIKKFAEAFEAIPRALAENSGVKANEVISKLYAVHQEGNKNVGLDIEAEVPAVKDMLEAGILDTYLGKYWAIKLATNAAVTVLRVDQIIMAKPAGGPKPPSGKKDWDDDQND
UniProt Q14247: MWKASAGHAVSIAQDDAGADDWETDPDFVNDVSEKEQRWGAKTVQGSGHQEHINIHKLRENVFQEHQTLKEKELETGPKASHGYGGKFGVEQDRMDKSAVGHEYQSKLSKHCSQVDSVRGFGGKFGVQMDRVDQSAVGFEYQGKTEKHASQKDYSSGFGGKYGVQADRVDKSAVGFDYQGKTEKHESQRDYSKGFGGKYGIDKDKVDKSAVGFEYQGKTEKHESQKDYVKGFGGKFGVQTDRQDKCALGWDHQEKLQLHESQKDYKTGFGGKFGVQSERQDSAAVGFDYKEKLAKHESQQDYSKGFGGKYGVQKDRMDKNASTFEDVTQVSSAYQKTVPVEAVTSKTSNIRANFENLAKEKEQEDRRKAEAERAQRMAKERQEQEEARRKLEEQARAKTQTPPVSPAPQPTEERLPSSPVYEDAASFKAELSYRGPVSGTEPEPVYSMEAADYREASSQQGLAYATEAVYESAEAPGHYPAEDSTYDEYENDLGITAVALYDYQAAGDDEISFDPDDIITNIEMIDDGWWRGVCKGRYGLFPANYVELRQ
UniProt P61006: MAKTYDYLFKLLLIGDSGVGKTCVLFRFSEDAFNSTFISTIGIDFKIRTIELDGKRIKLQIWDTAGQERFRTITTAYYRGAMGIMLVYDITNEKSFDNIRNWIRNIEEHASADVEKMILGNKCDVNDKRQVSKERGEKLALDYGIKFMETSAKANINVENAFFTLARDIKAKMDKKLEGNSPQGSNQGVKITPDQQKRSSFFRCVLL
UniProt P61026: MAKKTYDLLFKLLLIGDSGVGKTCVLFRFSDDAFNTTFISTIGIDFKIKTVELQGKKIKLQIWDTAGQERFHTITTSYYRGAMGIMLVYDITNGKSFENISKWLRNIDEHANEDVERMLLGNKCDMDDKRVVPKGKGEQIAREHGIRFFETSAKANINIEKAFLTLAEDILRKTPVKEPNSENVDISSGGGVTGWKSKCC
UniProt P46379: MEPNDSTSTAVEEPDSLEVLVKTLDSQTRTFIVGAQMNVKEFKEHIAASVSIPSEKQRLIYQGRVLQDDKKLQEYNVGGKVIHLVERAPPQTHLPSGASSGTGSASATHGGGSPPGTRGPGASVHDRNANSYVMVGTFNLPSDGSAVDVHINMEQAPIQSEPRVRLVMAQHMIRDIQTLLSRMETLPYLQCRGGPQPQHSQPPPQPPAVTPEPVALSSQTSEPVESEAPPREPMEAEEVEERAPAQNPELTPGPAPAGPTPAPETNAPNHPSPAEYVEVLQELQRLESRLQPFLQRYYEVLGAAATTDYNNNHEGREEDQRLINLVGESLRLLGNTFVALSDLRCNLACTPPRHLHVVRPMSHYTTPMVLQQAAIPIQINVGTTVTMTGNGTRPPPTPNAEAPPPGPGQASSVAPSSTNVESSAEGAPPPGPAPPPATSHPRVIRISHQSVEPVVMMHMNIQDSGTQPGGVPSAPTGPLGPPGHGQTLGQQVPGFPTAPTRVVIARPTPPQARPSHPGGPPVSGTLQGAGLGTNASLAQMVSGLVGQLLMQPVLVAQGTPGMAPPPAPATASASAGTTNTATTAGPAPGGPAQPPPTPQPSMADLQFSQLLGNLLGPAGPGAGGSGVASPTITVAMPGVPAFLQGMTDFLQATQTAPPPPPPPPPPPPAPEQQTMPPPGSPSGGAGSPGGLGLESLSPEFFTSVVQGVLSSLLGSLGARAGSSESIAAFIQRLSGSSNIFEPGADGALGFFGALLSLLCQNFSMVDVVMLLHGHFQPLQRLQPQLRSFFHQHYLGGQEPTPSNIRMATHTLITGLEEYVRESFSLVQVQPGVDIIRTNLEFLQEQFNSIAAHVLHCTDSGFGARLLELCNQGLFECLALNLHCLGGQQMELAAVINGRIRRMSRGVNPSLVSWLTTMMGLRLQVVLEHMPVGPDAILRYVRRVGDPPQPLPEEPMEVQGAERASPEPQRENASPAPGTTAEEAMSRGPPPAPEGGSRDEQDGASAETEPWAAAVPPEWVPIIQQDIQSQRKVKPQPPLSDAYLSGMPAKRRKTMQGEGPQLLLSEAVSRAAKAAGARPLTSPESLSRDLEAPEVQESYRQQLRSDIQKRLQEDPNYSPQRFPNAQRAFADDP

For test [2] the target is unchanged. Briefly: affinity purification with mass spectrometry; ARP-T1-DDK from transduced HeLa cells held on anti-FLAG M2 affinity gel; FLAG lysis buffer (50 mM Tris/HCl pH 7.5, 150 mM NaCl, 1 mM EDTA, 1% Triton X-100); precipitate separated on a gel, digested with trypsin, Orbitrap mass spectrometry; empty vector as control.
Test [3] shares this target. Briefly: affinity purification with mass spectrometry; ARP-T1-DDK from transduced differentiated NHEK held on anti-FLAG M2 affinity gel; FLAG lysis buffer; precipitate separated on a gel, digested with trypsin, Orbitrap mass spectrometry; empty vector as control.

Results are given in words; binding and its absence hold for the method and conditions named. Binding seen in cells or lysates may run through a third protein. These calls come from enrichment with a bait or labelling near it, and not all partners need be listed.

Rab6A (from UniProt P20340 1-208): in test [1], the binding entry is listed as “binds”.

Consider “Heat shock cognate 71 kDa protein (from UniProt P11142 1-646)”, for which the binding entry in test [2] is “binds”.

For the molecule RuvB-like 1 (from UniProt Q9Y265 1-456), the binding entry in test [1] is on record as “binds”.

As to Rab18 (from UniProt Q9NP72 1-206), the binding result in test [3] was “binds”.

Consider “BAG family molecular chaperone regulator 2 (BAG 2) (from UniProt O95816 1-211)”, for which the binding result in test [3], in test [1] and in test [2] was “binds” in each case.

For Filamin-A (from UniProt P21333 1-2647), the binding entry in test [2] is listed as “binds”.

For the molecule Exportin 1 (from UniProt O14980 1-1071), the binding entry in test [2] is reported as “binds”.

For the molecule “T-complex protein 1 subunit theta (TCP1 theta) (from UniProt P50990 1-548)”, the binding entry in test [1] and in test [2] was “binds” throughout.

As to Cortactin (from UniProt Q14247 1-550), the binding result in test [1] is reported as “binds”.

Regarding “Ras-related protein Rab-8A (from UniProt P61006 1-207)”, in test [2], the binding result was “binds”.

As to Rab10 (from UniProt P61026 1-200), the binding entry in test [1] is “binds”.

With “BAG family molecular chaperone regulator 6 (BAG 6) (from UniProt P46379 1-1132)”, the binding entry in test [3] is reported as “binds”.

B1: Erlin-2 (protein, UniProt O94905 1-339)
chain: MAQLGAVVAVASSFFCASLFSAVHKIEEGHIGVYYRGGALLTSTSGPGFHLMLPFITSYKSVQTTLQTDEVKNVPCGTSGGVMIYFDRIEVVNFLVPNAVYDIVKNYTADYDKALIFNKIHHELNQFCSVHTLQEVYIELFDQIDENLKLALQQDLTSMAPGLVIQAVRVTKPNIPEAIRRNYELMESEKTKLLIAAQKQKVVEKEAETERKKALIEAEKVAQVAEITYGQKVMEKETEKKISEIEDAAFLAREKAKADAECYTAMKIAEANKLKLTPEYLQLMKYKAIASNSKIYFGKDIPNMFMDSAGSVSKQFEGLADKLSFGLEDEPLETATKEN
For B1, the binding entry in test [3] and in test [2] was “binds” in each case.

B2: Septin-9 (protein, UniProt Q9UHD8 1-586)
chain: MKKSYSGGTRTSSGRLRRLGDSSGPALKRSFEVEEVETPNSTPPRRVQTPLLRATVASSTQKFQDLGVKNSEPSARHVDSLSQRSPKASLRRVELSGPKAAEPVSRRTELSIDISSKQVENAGAIGPSRFGLKRAEVLGHKTPEPAPRRTEITIVKPQESAHRRMEPPASKVPEVPTAPATDAAPKRVEIQMPKPAEAPTAPSPAQTLENSEPAPVSQLQSRLEPKPQPPVAEATPRSQEATEAAPSCVGDMADTPRDAGLKQAPASRNEKAPVDFGYVGIDSILEQMRRKAMKQGFEFNIMVVGQSGLGKSTLINTLFKSKISRKSVQPTSEERIPKTIEIKSITHDIEEKGVRMKLTVIDTPGFGDHINNENCWQPIMKFINDQYEKYLQEEVNINRKKRIPDTRVHCCLYFIPATGHSLRPLDIEFMKRLSKVVNIVPVIAKADTLTLEERVHFKQRITADLLSNGIDVYPQKEFDEDSEDRLVNEKFREMIPFAVVGSDHEYQVNGKRILGRKTKWGTIEVENTTHCEFAYLRDLLIRTHMQNIKDITSSIHFEAYRVKRLNEGSSAMANGMEEKEPEAPEM
With B2, the binding result in test [1] was “binds”.

B3: EH domain-containing protein 1 (EHD1) (protein, UniProt Q9H4M9 1-534)
chain: MFSWVSKDARRKKEPELFQTVAEGLRQLYAQKLLPLEEHYRFHEFHSPALEDADFDNKPMVLLVGQYSTGKTTFIRHLIEQDFPGMRIGPEPTTDSFIAVMHGPTEGVVPGNALVVDPRRPFRKLNAFGNAFLNRFMCAQLPNPVLDSISIIDTPGILSGEKQRISRGYDFAAVLEWFAERVDRIILLFDAHKLDISDEFSEVIKALKNHEDKIRVVLNKADQIETQQLMRVYGALMWSLGKIINTPEVVRVYIGSFWSHPLLIPDNRKLFEAEEQDLFKDIQSLPRNAALRKLNDLIKRARLAKVHAYIISSLKKEMPNVFGKESKKKELVNNLGEIYQKIEREHQISPGDFPSLRKMQELLQTQDFSKFQALKPKLLDTVDDMLANDIARLMVMVRQEESLMPSQVVKGGAFDGTMNGPFGHGYGEGAGEGIDDVEWVVGKDKPTYDEIFYTLSPVNGKITGANAKKEMVKSKLPNTVLGKIWKLADVDKDGLLDDEEFALANHLIKVKLEGHELPADLPPHLVPPSKRRHE
Turning to B3, the binding result in test [1] is listed as “binds”.

B4: Septin-2 (protein, UniProt Q15019 1-361)
chain: MSKQQPTQFINPETPGYVGFANLPNQVHRKSVKKGFEFTLMVVGESGLGKSTLINSLFLTDLYPERVIPGAAEKIERTVQIEASTVEIEERGVKLRLTVVDTPGYGDAINCRDCFKTIISYIDEQFERYLHDESGLNRRHIIDNRVHCCFYFISPFGHGLKPLDVAFMKAIHNKVNIVPVIAKADTLTLKERERLKKRILDEIEEHNIKIYHLPDAESDEDEDFKEQTRLLKASIPFSVVGSNQLIEAKGKKVRGRLYPWGVVEVENPEHNDFLKLRTMLITHMQDLQEVTQDLHYENFRSERLKRGGRKVENEDMNKDQILLEKEAELRRMQEMIARMQAQMQMQMQGGDGDGGALGHHV
Consider B4, for which the binding entry in test [1] is “binds”.

B5: EH domain containing protein 4 (EHD4) (protein, UniProt Q9H223 1-541)
chain: MFSWMGRQAGGRERAGGADAVQTVTGGLRSLYLRKVLPLEEAYRFHEFHSPALEDADFENKPMILLVGQYSTGKTTFIRYLLEQDFPGMRIGPEPTTDSFIAVMYGETEGSTPGNALVVDPKKPFRKLSRFGNAFLNRFMCSQLPNQVLKSISVIDSPGILSGEKQRISRGYDFCQVLQWFAERVDRIILLFDAHKLDISDEFSEAIKAFRGQDDKIRVVLNKADQVDTQQLMRVYGALMWSLGKVINTPEVLRVYIGSFWAQPLQNTDNRRLFEAEAQDLFRDIQSLPQKAAVRKLNDLIKRARLAKVHAYIISYLKKEMPSVFGKENKKRELISRLPEIYIQLQREYQISAGDFPEVKAMQEQLENYDFTKFHSLKPKLIEAVDNMLSNKISPLMNLISQEETSTPTQLVQGGAFDGTTEGPFNQGYGEGAKEGADEEEWVVAKDKPVYDELFYTLSPINGKISGVNAKKEMVTSKLPNSVLGKIWKLADCDCDGMLDEEEFALAKHLIKIKLDGYELPSSLPPHLVPPSHRKSLPKAD
With B5, the binding result in test [1] was “binds”.

B6: T-complex protein 1 subunit beta (TCP1 beta) (protein, UniProt P78371 1-535)
chain: MASLSLAPVNIFKAGADEERAETARLTSFIGAIAIGDLVKSTLGPKGMDKILLSSGRDASLMVTNDGATILKNIGVDNPAAKVLVDMSRVQDDEVGDGTTSVTVLAAELLREAESLIAKKIHPQTIIAGWREATKAAREALLSSAVDHGSDEVKFRQDLMNIAGTTLSSKLLTHHKDHFTKLAVEAVLRLKGSGNLEAIHIIKKLGGSLADSYLDEGFLLDKKIGVNQPKRIENAKILIANTGMDTDKIKIFGSRVRVDSTAKVAEIEHAEKEKMKEKVERILKHGINCFINRQLIYNYPEQLFGAAGVMAIEHADFAGVERLALVTGGEIASTFDHPELVKLGSCKLIEEVMIGEDKLIHFSGVALGEACTIVLRGATQQILDEAERSLHDALCVLAQTVKDSRTVYGGGCSEMLMAHAVTQLANRTPGKEAVAMESYAKALRMLPTIIADNAGYDSADLVAQLRAAHSEGNTTAGLDMREGTIGDMAILGITESFQVKRQVLLSAAEAAEVILRVDNIIKAAPRKRVPDHHPC
Turning to B6, the binding result in test [3] is listed as “binds”.
